{"source": "PubChem BioAssay AID602196 (INSERM, 2012)", "assay": "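Genes whose knock-down alters cisplatin killing of lung cancer cells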", "cells": "human A549 lung cancer cells", "knock-down reagent": "siRNA pair against human genes", "time to read-out": "48 h transfection before cisplatin; time from cisplatin to read-out not stated", "treatment": "cisplatin at a dose killing half of control-siRNA cells; exact dose and duration not given", "read-out": "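Shift in cisplatin death relative to control siRNA, from -50 (all cells die) to +50 (no cells die); siRNAs harmful on their own scored 0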", "reading the numbers": "two-siRNA summed score (-2 to +2): higher = both siRNAs protect from cisplatin killing; -2 means both sensitise", "active means": "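Each siRNA scores 0 if harmful alone by LDH or WST-1, otherwise +1 if it reduces and -1 if it increases cisplatin killing; a gene is active when both siRNAs agree (sum +2 or -2)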", "calls": "active = both siRNAs shift cisplatin killing the same way; inactive = no consistent shift, or siRNA harmful alone", "note": "Here is an unselected part of about 23,000 reagents tested. 455 of all reagents (2%) were called active. 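Active includes both protection and sensitisation; some change values fall well beyond the stated -50 to +50 range.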 Reagents against one gene are numbered here. Further read-outs or replicates are left out here. Not given: the amount of reagent."}
{"target":"CDCA4 (cell division cycle associated 4)","reagent":1,"two-siRNA summed score (-2 to +2)":0,"Call":"inactive"}
{"target":"TYW3 (tRNA-yW synthesizing protein 3 homolog)","reagent":1,"two-siRNA summed score (-2 to +2)":1,"Call":"inactive"}
{"target":"KIFBP (kinesin family binding protein)","reagent":1,"two-siRNA summed score (-2 to +2)":0,"Call":"inactive"}
{"target":"INSL3 (insulin like 3)","reagent":1,"two-siRNA summed score (-2 to +2)":1,"Call":"inactive"}
{"target":"E2F4 (E2F transcription factor 4)","reagent":1,"two-siRNA summed score (-2 to +2)":0,"Call":"inactive"}
{"target":"SIAH1 (siah E3 ubiquitin protein ligase 1)","reagent":1,"two-siRNA summed score (-2 to +2)":0,"Call":"inactive"}
{"target":"LOC388633","reagent":1,"two-siRNA summed score (-2 to +2)":-1,"Call":"inactive"}
{"target":"DDX31 (DEAD-box helicase 31)","reagent":1,"two-siRNA summed score (-2 to +2)":1,"Call":"inactive"}
{"target":"LOC440265","reagent":1,"two-siRNA summed score (-2 to +2)":0,"Call":"inactive"}
{"target":"LINC00900 (long independently transcribed non-coding RNA 900)","reagent":1,"two-siRNA summed score (-2 to +2)":0,"Call":"inactive"}
{"target":"LOC391783","reagent":1,"two-siRNA summed score (-2 to +2)":0,"Call":"inactive"}
{"target":"LOC440794","reagent":1,"two-siRNA summed score (-2 to +2)":0,"Call":"inactive"}
{"target":"CYP3A43 (cytochrome P450 family 3 subfamily A member 43)","reagent":1,"two-siRNA summed score (-2 to +2)":0,"Call":"inactive"}
{"target":"ALYREF (Aly/REF export factor)","reagent":1,"two-siRNA summed score (-2 to +2)":0,"Call":"inactive"}
{"target":"PIP4P2 (phosphatidylinositol-4,5-bisphosphate 4-phosphatase 2)","reagent":1,"two-siRNA summed score (-2 to +2)":-1,"Call":"inactive"}
{"target":"RAD52 (RAD52 DNA repair protein)","reagent":1,"two-siRNA summed score (-2 to +2)":1,"Call":"inactive"}
{"target":"EIF4G3 (eukaryotic translation initiation factor 4 gamma 3)","reagent":1,"two-siRNA summed score (-2 to +2)":0,"Call":"inactive"}
{"target":"TM2D3 (TM2 domain containing 3)","reagent":1,"two-siRNA summed score (-2 to +2)":1,"Call":"inactive"}
{"target":"PTGER3 (prostaglandin E receptor 3)","reagent":1,"two-siRNA summed score (-2 to +2)":0,"Call":"inactive"}
{"target":"PTGER3 (prostaglandin E receptor 3)","reagent":2,"two-siRNA summed score (-2 to +2)":0,"Call":"inactive"}
{"target":"CALCR (calcitonin receptor)","reagent":1,"two-siRNA summed score (-2 to +2)":1,"Call":"inactive"}
{"target":"RFESD (Rieske Fe-S domain containing)","reagent":1,"two-siRNA summed score (-2 to +2)":1,"Call":"inactive"}
{"target":"ZNF529 (zinc finger protein 529)","reagent":1,"two-siRNA summed score (-2 to +2)":0,"Call":"inactive"}
{"target":"LOC388898","reagent":1,"two-siRNA summed score (-2 to +2)":0,"Call":"inactive"}
{"target":"ZNF644 (zinc finger protein 644)","reagent":1,"two-siRNA summed score (-2 to +2)":0,"Call":"inactive"}
{"target":"LOC441629","reagent":1,"two-siRNA summed score (-2 to +2)":0,"Call":"inactive"}
{"target":"MYO1H (myosin IH)","reagent":1,"two-siRNA summed score (-2 to +2)":0,"Call":"inactive"}
{"target":"DHX32 (DEAH-box helicase 32 (putative))","reagent":1,"two-siRNA summed score (-2 to +2)":0,"Call":"inactive"}
{"target":"TMPRSS11A (transmembrane serine protease 11A)","reagent":1,"two-siRNA summed score (-2 to +2)":0,"Call":"inactive"}
{"target":"DYRK2 (dual specificity tyrosine phosphorylation regulated kinase 2)","reagent":1,"two-siRNA summed score (-2 to +2)":2,"Call":"active"}
{"target":"SPI1 (Spi-1 proto-oncogene)","reagent":1,"two-siRNA summed score (-2 to +2)":-2,"Call":"active"}

Records above whose gene name begins with L or l:
{"target":"LOC388633","reagent":1,"two-siRNA summed score (-2 to +2)":-1,"Call":"inactive"}
{"target":"LOC440265","reagent":1,"two-siRNA summed score (-2 to +2)":0,"Call":"inactive"}
{"target":"LINC00900 (long independently transcribed non-coding RNA 900)","reagent":1,"two-siRNA summed score (-2 to +2)":0,"Call":"inactive"}
{"target":"LOC391783","reagent":1,"two-siRNA summed score (-2 to +2)":0,"Call":"inactive"}
{"target":"LOC440794","reagent":1,"two-siRNA summed score (-2 to +2)":0,"Call":"inactive"}
{"target":"LOC388898","reagent":1,"two-siRNA summed score (-2 to +2)":0,"Call":"inactive"}
{"target":"LOC441629","reagent":1,"two-siRNA summed score (-2 to +2)":0,"Call":"inactive"}
